Experimental data published in publication PMC10209169.
These are yes or no findings as the source states them, for the method shown. Binding seen in cells or lysates may run through a third protein. For some of these results: Binding can be weak; no strength is given.

What was measured:
[1] = molecular target: Rab5 (mouse) (mouse (endogenous in C57/Bl6 kidney)); assay: co-IP; Rab5 co-IP from kidneys of C57/Bl6 or Rubicon-/- mice 24 h after 750 μg MOPC or anti-H-2^b Ab (n = 3 per group)
mCherry-Rab5 DN (S43N) = assay: co-IP; Rab5 co-IP from HUVEC stably transduced with Rab5 WT or Rab5 DN, PRA for the indicated times

Binder | binding [1] | binding (mCherry-Rab5 DN (S43N))
FliI (mouse) (protein, UniProt Q9JJ28 1-1271) MEATGVLPFVRGVDLSGNDFKGGYFPENVKAMTSLRWLKLNRTGLCYLPEELAALQKLEHLSVSHNHLTTLHGELSSLPSLRAIVARANSLKNSGVPDDIFKLDDLSVLDLSHNQLTECPRELENAKNMLVLNLSHNGIDSIPNQLFINLTDLLYLDLSENRLESLPPQMRRLVHLQTLVLNGNPLLHAQLRQLPAMMALQTLHLRNTQRTQSNLPTSLEGLSNLSDVDLSCNDLTRVPECLYTLPSLRRLNLSSNQIAELSLCIDQWVHLETLNLSRNQLTSLPSAICKLTKLKKLYLNSNKLDFDGLPSGIGKLTSLEEFMAANNNLELIPESLCRCPKLKKLVLNKNRLVTLPEAIHFLTEIQVLDVRENPSLVMPPKPADRTAEWYNIDFSLQNQLRLAGASPATVAAAAAVGSGSKDPLARKMRLRRRKDSAQDVQAKQVLKGMSDVAQEKNKNQEESIDARAPGGKVRRWDQGLEKPRLDYSEFFTEDVGQLPGLTIWQIENFVPVLVEEAFHGKFYEADCYIVLKTFLDDSGSLNWEIYYWIGGEATLDKKACSAIHAVNLRNYLGAECRTVREEMGDESEEFLQVFDNDISYIEGGTASGFYTVEDTHYVTRMYRVYGKKNIKLEPVPLKGSSLDPRFVFLLDQGLDIYVWRGAQATLSNTTKARLFAEKINKNERKGKAEITLLVQGQEPPGFWDVLGGEPSEIKNHVPDDFWPPQPKLYKVGLGLGYLELPQINYKLSVEHKKRPKVELMPGMRLLQSLLDTRCVYILDCWSDVFIWLGRKSPRLVRAAALKLGQELCGMLHRPRHTVVSRSLEGTEAQVFKAKFKNWDDVLTVDYTRNAEAVLQGQGLSGKVKRDTEKTDQMKADLTALFLPRQPPMPLAEAEQLMEEWNEDLDGMEGFVLEGRKFTRLPEEEFGHFYTQDCYVFLCRYWVPVEYEEEEKTEDKEGKASAEAREGEEAAAEAEEKQPEEDFQCIVYFWQGREASNMGWLTFTFSLQKKFESLFPGKLEVVRMTQQQENPKFLSHFKRKFIIHRGKRKVTQGTLQPTLYQIRTNGSALCTRCIQINTDSSLLNSEFCFILKVPFESEDNQGIVYAWVGRASDPDEAKLAEDILNTMFDASYSKQVINEGEEPENFFWVGIGAQKPYDDDAEYMKHTRLFRCSNEKGYFAVTEKCSDFCQDDLADDDIMLLDNGQEVYMWVGTQTSQVEIKLSLKACQVYIQHTRSKEHERPRRLRLVRKGNEQRAFTRCFHAWSTFRQAPA | binds | –
RNF34 (protein, UniProt Q969K3 1-372) MKAGATSMWASCCGLLNEVMGTGAVRGQQSAFAGATGPFRFTPNPEFSTYPPAATEGPNIVCKACGLSFSVFRKKHVCCDCKKDFCSVCSVLQENLRRCSTCHLLQETAFQRPQLMRLKVKDLRQYLILRNIPIDTCREKEDLVDLVLCHHGLGSEDDMDTSSLNSSRSQTSSFFTRSFFSNYTAPSATMSSFQGELMDGDQTSRSGVPAQVQSEITSANTEDDDDDDDEDDDDEEENAEDRNPGLSKERVRASLSDLSSLDDVEGMSVRQLKEILARNFVNYSGCCEKWELVEKVNRLYKENEENQKSYGERLQLQDEEDDSLCRICMDAVIDCVLLECGHMVTCTKCGKRMSECPICRQYVVRAVHVFKS | – | no binding

More lines, now with the values ahead:

binding [1] | binding (mCherry-Rab5 DN (S43N)) | Binder
binds | – | Rubicon (mouse) (protein, UniProt Q80U62 1-956) MRPEGAGMDLGGGDGERLLEKSRREHWQLLGNLKTTVEGLVSANCPNVWSKYGGLERLCRDMQNILYHGLIHDQVCCRQADYWQFVKDIRWLSPHSALHVEKFISLHESDQSDTDSVSERAVAELWLQHSLQCHCLSAQLRPLLGDRQYIRKFYTETAFLLSDAHVTAMLQCLEAVEQNNPRLLAQIDASMFARKQESPLLVTKSQSLTALPGSTYTPPASYAQHSYFGSSSSLQSMPQSSHSSERRSTSFSLSGPSWQPQEDRECLSPAETQTTPAPLPSDSTLAQDSPLTAQEMSDSTLTSPLEASWVSSQNDSPSDVSEGPEYLAIGNPAPHGRTASCESHSSNGESSSSHLFSSSSSQKLESAASSLGDQEEGRQSQAGSVLRRSSFSEGQTAPVASGTKKSHIRSHSDTNIASRGAAGGPRNITIIVEDPIAEGGQYLCSGEGMFRRPSEGQSLISYLSEQDFGSCADLEKENAHFSISESLIAAIELMKCNMMSQCLEEEEVEEEDSDREIQELKQKIRLRRQQIRTKNLLPAYRETENGSFRVTSSSSQFSSRDSTQLSESGSAEDADDLEIQDADIRRSAVSNGKSSFSQNLSHCFLHSTSAEAVAMGLLKQFEGMQLPAASELEWLVPEHDAPQKLLPIPDSLPISPDDGQHADIYKLRIRVRGNLEWAPPRPQIIFNVHPAPTRKIAVAKQNYRCAGCGIRTDPDYIKRLRYCEYLGKYFCQCCHENAQMVVPSRILRKWDFSKYYVSNFSKDLLLKIWNDPLFNVQDINSALYRKVKLLNQVRLLRVQLYHMKNMFKTCRLAKELLDSFDVVPGHLTEDLHLYSLSDLTATKKGELGPRLAELTRAGAAHVERCMLCQAKGFICEFCQNEEDVIFPFELHKCRTCEECKACYHKTCFKSGRCPRCERLQARRELLAKQSLESYLSDYEEEPTEALALEATVLETT
– | no binding | Rubicon (protein, UniProt Q92622 1-972) MRPEGAGMELGGGEERLPEESRREHWQLLGNLKTTVEGLVSTNSPNVWSKYGGLERLCRDMQSILYHGLIRDQACRRQTDYWQFVKDIRWLSPHSALHVEKFISVHENDQSSADGASERAVAELWLQHSLQYHCLSAQLRPLLGDRQYIRKFYTDAAFLLSDAHVTAMLQCLEAVEQNNPRLLAQIDASMFARKHESPLLVTKSQSLTALPSSTYTPPNSYAQHSYFGSFSSLHQSVPNNGSERRSTSFPLSGPPRKPQESRGHVSPAEDQTIQAPPVSVSALARDSPLTPNEMSSSTLTSPIEASWVSSQNDSPGDASEGPEYLAIGNLDPRGRTASCQSHSSNAESSSSNLFSSSSSQKPDSAASSLGDQEGGGESQLSSVLRRSSFSEGQTLTVTSGAKKSHIRSHSDTSIASRGAPESCNDKAKLRGPLPYSGQSSEVSTPSSLYMEYEGGRYLCSGEGMFRRPSEGQSLISYLSEQDFGSCADLEKENAHFSISESLIAAIELMKCNMMSQCLEEEEVEEEDSDREIQELKQKIRLRRQQIRTKNLLPMYQEAEHGSFRVTSSSSQFSSRDSAQLSDSGSADEVDEFEIQDADIRRNTASSSKSFVSSQSFSHCFLHSTSAEAVAMGLLKQFEGMQLPAASELEWLVPEHDAPQKLLPIPDSLPISPDDGQHADIYKLRIRVRGNLEWAPPRPQIIFNVHPAPTRKIAVAKQNYRCAGCGIRTDPDYIKRLRYCEYLGKYFCQCCHENAQMAIPSRVLRKWDFSKYYVSNFSKDLLIKIWNDPLFNVQDINSALYRKVKLLNQVRLLRVQLCHMKNMFKTCRLAKELLDSFDTVPGHLTEDLHLYSLNDLTATRKGELGPRLAELTRAGATHVERCMLCQAKGFICEFCQNEDDIIFPFELHKCRTCEECKACYHKACFKSGSCPRCERLQARREALARQSLESYLSDYEEEPAEALALEAAVLEAT
